Some of the results follow. Many values rest on one well or one pass, so single values are uncertain.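 Cells were imaged in 1,536-well plates, and nuclei stained with an antibody against cleaved PARP were counted against all DNA-stained nuclei to give the apoptosis fraction. Screening doses were chosen to leave most cells alive, and resting and induced cleaved-PARP levels differ strongly between cell lines.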
What was measured:
Test in all cases: cleaved PARP positive nuclei fraction relative to DMSO control; melanoma cells; higher = more apoptosis
Settings in all cases: library dose: low library concentration; 72 h
501Mel = test system: 501Mel
A101D = test system: A101D
A2058 = test system: A2058
C32 = test system: C32
CBRC008 = test system: CBRC008 (line from a melanoma biopsy)
CBRC014 = test system: CBRC014 (line from a melanoma biopsy)
CBRC016 = test system: CBRC016 (line from a melanoma biopsy)
CBRC017 = test system: CBRC017 (line from a melanoma biopsy)
COLO792 = test system: COLO792
COLO800 = test system: COLO800
COLO829 = test system: COLO829
G361 = test system: G361
IPC-298 = test system: IPC-298
IST-MEL1 = test system: IST-MEL1
LB2518-MEL = test system: LB2518-MEL
LOXIMVI = test system: LOXIMVI

SMILES | cleaved PARP positive nuclei fraction (501Mel) | cleaved PARP positive nuclei fraction (A101D) | cleaved PARP positive nuclei fraction (A2058) | cleaved PARP positive nuclei fraction (C32) | cleaved PARP positive nuclei fraction (CBRC008) | cleaved PARP positive nuclei fraction (CBRC014) | cleaved PARP positive nuclei fraction (CBRC016) | cleaved PARP positive nuclei fraction (CBRC017) | cleaved PARP positive nuclei fraction (COLO792) | cleaved PARP positive nuclei fraction (COLO800) | cleaved PARP positive nuclei fraction (COLO829) | cleaved PARP positive nuclei fraction (G361) | cleaved PARP positive nuclei fraction (IPC-298) | cleaved PARP positive nuclei fraction (IST-MEL1) | cleaved PARP positive nuclei fraction (LB2518-MEL) | cleaved PARP positive nuclei fraction (LOXIMVI)
OCc1c[nH]c2ccccc12 [Indole-3-carbinol] + COC(=O)c1sccc1S(=O)(=O)Nc1ccc(Nc2ccccc2)cc1OC [GSK0660] (first compound 0.8 µM, partner dose 1 µM) | 51.8% | 19.1% | 63.8% | 96.2% | 33.1% | 81.9% | 48.6% | 84.8% | 69% | 215% | 60.1% | 51% | 57.9% | 180% | 78% | 35.6%
OCc1c[nH]c2ccccc12 [Indole-3-carbinol] + Oc1cc(-c2nc(-c3ccccc3)[nH]c2-c2ccncc2)ccc1Cl [L779450] (first compound 0.8 µM, partner dose 0.2 µM) | 77% | 39% | 22.4% | 41.8% | 45.2% | 105% | 177% | 88.9% | 121% | 111% | 41.8% | 89.3% | 118% | 133% | 136% | 53.5%
Clc1ccc(Nc2nnc(Cc3ccncc3)c3ccccc23)cc1 [vatalanib] + O=C1NC(=O)/C(=C/c2ccc(-c3ccc(F)cc3O)o2)S1 [AS252424] (first compound 2 µM, partner dose 1 µM) | 56.9% | 46.2% | 57.5% | 101% | 214% | 132% | 101% | 89% | 79.9% | 80.6% | 55.4% | 141% | 109% | 60.5% | 83.4% | 33.9%
CC(=O)c1c(C)c2cnc(Nc3ccc(N4CCNCC4)cn3)nc2n(C2CCCC2)c1=O [palbociclib] + COc1ccc2c(c1)CCC1C2CCC2(C)C(NCCCCCCN3C(=O)C=CC3=O)CCC12 [U73122] (first compound 0.04 µM, partner dose 0.4 µM) | 165% | 21.2% | 103% | 53.3% | 38% | 62.4% | 115% | 180% | 110% | 114% | 149% | 102% | 29.3% | 108% | 37.1% | 122%
C=CCNC1=C2C[C@@H](C)C[C@H](OC)[C@H](O)[C@@H](C)/C=C(\C)[C@H](OC(N)=O)[C@@H](OC)/C=C\C=C(/C)C(=O)NC(=CC1=O)C2=O [Tanespimycin] + c1cc(-c2cnn3cc(-c4ccc(OCCN5CCCCC5)cc4)cnc23)ccn1 [Dorsomorphin] (first compound 0.002 µM, partner dose 0.4 µM) | 32.9% | 19.6% | 51% | 50.2% | 53.2% | 109% | 31.5% | 80.1% | 25.4% | 113% | 109% | 121% | 61.7% | 95.7% | 96.4% | 99.4%
CC(=O)c1c(C)c2cnc(Nc3ccc(N4CCNCC4)cn3)nc2n(C2CCCC2)c1=O [palbociclib] + N#Cc1c(O)c2c(-c3ccc(-c4ccccc4O)cc3)csc2[nH]c1=O [A769662] (first compound 0.04 µM, partner dose 2 µM) | 183% | 99.6% | 28.9% | 400% | 107% | 103% | 55% | 67% | 59.6% | 106% | 244% | 66.7% | 54.7% | 70.7% | 107% | 145%
CC(=O)c1c(C)c2cnc(Nc3ccc(N4CCNCC4)cn3)nc2n(C2CCCC2)c1=O [palbociclib] + O=C(Nc1ccccc1)c1cc([N+](=O)[O-])ccc1Cl [GW9662] (first compound 0.04 µM, partner dose 2 µM) | 123% | 24.1% | 87.2% | 110% | 67.1% | 105% | 47.1% | 63.8% | 139% | 67.3% | 156% | 124% | 103% | 161% | 81.8% | 96.3%
C=CCNC1=C2C[C@@H](C)C[C@H](OC)[C@H](O)[C@@H](C)/C=C(\C)[C@H](OC(N)=O)[C@@H](OC)/C=C\C=C(/C)C(=O)NC(=CC1=O)C2=O [Tanespimycin] + COc1ccc2c(c1)CCC1C2CCC2(C)C(NCCCCCCN3C(=O)C=CC3=O)CCC12 [U73122] (first compound 0.002 µM, partner dose 0.4 µM) | 102% | 35.8% | 66.4% | 36.4% | 66.4% | 97.7% | 44.8% | 84.9% | 68.4% | 117% | 117% | 93% | 59.5% | 85.2% | 70% | 69.2%
OCc1c[nH]c2ccccc12 [Indole-3-carbinol] + COc1cc2ncnc(Nc3ccc(Oc4ccccc4)cc3)c2cc1OC [SrcI1] (first compound 0.8 µM, partner dose 2 µM) | 98.3% | 9.82% | 116% | 102% | 110% | 79.3% | 110% | 160% | 85.9% | 69% | 95% | 35.4% | 48% | 101% | 112% | 90.5%
C=CCNC1=C2C[C@@H](C)C[C@H](OC)[C@H](O)[C@@H](C)/C=C(\C)[C@H](OC(N)=O)[C@@H](OC)/C=C\C=C(/C)C(=O)NC(=CC1=O)C2=O [Tanespimycin] + CCN(CC)CCCCNc1ncc2cc(-c3cc(OC)cc(OC)c3)c(NC(=O)NC(C)(C)C)nc2n1 [PD173074] (first compound 0.002 µM, partner dose 0.1 µM) | 65.4% | 23.8% | 87.1% | 51.6% | 34.1% | 102% | 72.5% | 66% | 14.8% | 88.1% | 68% | 89.6% | 92.2% | 124% | 73.1% | 71.7%
C=CCNC1=C2C[C@@H](C)C[C@H](OC)[C@H](O)[C@@H](C)/C=C(\C)[C@H](OC(N)=O)[C@@H](OC)/C=C\C=C(/C)C(=O)NC(=CC1=O)C2=O [Tanespimycin] + Cn1cc(/C=C2\C(=O)Nc3cccnc32)c2ccccc21 [GW441756] (first compound 0.002 µM, partner dose 0.4 µM) | 76.8% | 14% | 93.4% | 137% | 299% | 98% | 74.1% | 71.8% | 94.3% | 340% | 72.5% | 138% | 139% | 59.7% | 66.7% | 76.4%
C=CCNC1=C2C[C@@H](C)C[C@H](OC)[C@H](O)[C@@H](C)/C=C(\C)[C@H](OC(N)=O)[C@@H](OC)/C=C\C=C(/C)C(=O)NC(=CC1=O)C2=O [Tanespimycin] + COC(=O)c1sccc1S(=O)(=O)Nc1ccc(Nc2ccccc2)cc1OC [GSK0660] (first compound 0.002 µM, partner dose 1 µM) | 34.8% | 23.8% | 53.9% | 34.9% | 58.1% | 88.7% | 53.2% | 63.2% | 62.9% | 75.7% | 87.2% | 113% | 69.8% | 146% | 31.3% | 87.4%
Clc1ccc(Nc2nnc(Cc3ccncc3)c3ccccc23)cc1 [vatalanib] + CCN(CC)CCCCNc1ncc2cc(-c3cc(OC)cc(OC)c3)c(NC(=O)NC(C)(C)C)nc2n1 [PD173074] (first compound 2 µM, partner dose 0.1 µM) | 104% | 306% | 144% | 45.1% | 130% | 126% | 99.2% | 47.7% | 176% | 143% | 115% | 95.4% | 27.7% | 219% | 166% | 70.6%
CC(=O)c1c(C)c2cnc(Nc3ccc(N4CCNCC4)cn3)nc2n(C2CCCC2)c1=O [palbociclib] + COc1cc(N2CCC(N3CCN(C)CC3)CC2)ccc1Nc1ncc(Cl)c(Nc2ccccc2S(=O)(=O)C(C)C)n1 [NVP-TAE684] (first compound 0.04 µM, partner dose 0.08 µM) | 212% | 36.2% | 66.9% | 147% | 73.1% | 223% | 2320% | 117% | 172% | 42.1% | 144% | 58% | 230% | 52% | 92% | 74.8%
OCc1c[nH]c2ccccc12 [Indole-3-carbinol] + CC(C)CCN1c2nc(Nc3cc(F)c(O)c(F)c3)ncc2N(C)C(=O)C1C [BID1870] (first compound 0.8 µM, partner dose 0.2 µM) | 76.4% | 26% | 191% | 102% | 71.7% | 89.4% | 78.6% | 151% | 92.5% | 101% | 121% | 120% | 100% | 34.9% | 79.2% | 56.8%
C=CCNC1=C2C[C@@H](C)C[C@H](OC)[C@H](O)[C@@H](C)/C=C(\C)[C@H](OC(N)=O)[C@@H](OC)/C=C\C=C(/C)C(=O)NC(=CC1=O)C2=O [Tanespimycin] + O=C(Nc1ccccc1)c1cc([N+](=O)[O-])ccc1Cl [GW9662] (first compound 0.002 µM, partner dose 2 µM) | 57.4% | 39.1% | 87.7% | 29.9% | 313% | 110% | 26.7% | 96.1% | 50.2% | 70.1% | 109% | 83.6% | 95.7% | 127% | 67% | 85.3%
C=CCNC1=C2C[C@@H](C)C[C@H](OC)[C@H](O)[C@@H](C)/C=C(\C)[C@H](OC(N)=O)[C@@H](OC)/C=C\C=C(/C)C(=O)NC(=CC1=O)C2=O [Tanespimycin] + Oc1nc(-c2ccc(C(F)(F)F)cc2)nc2c1CSCC2 [XAV939] (first compound 0.002 µM, partner dose 2 µM) | 67.2% | 22.9% | 479% | 99.1% | 67% | 112% | 79.7% | 63% | 76.2% | 81.4% | 84.2% | 111% | 158% | 117% | 73.2% | 110%
Clc1ccc(Nc2nnc(Cc3ccncc3)c3ccccc23)cc1 [vatalanib] + O=S(=O)(c1ccccc1)N(CC(F)(F)F)c1ccc(C(O)(C(F)(F)F)C(F)(F)F)cc1 [T0901317] (first compound 2 µM, partner dose 1.4 µM) | 162% | 73.4% | 82.8% | 137% | 438% | 122% | 94.2% | 87.8% | 82.7% | 72.2% | 129% | 78.5% | 47.1% | 129% | 83.6% | 57.2%
